What all share (experiment): co-IP
Assay [1] addresses T1, nicotinic acetylcholine receptor (nAChR) subunit α1, endogenously tagged with smGFP-V5 (α1^V5) (Drosophila (endogenous, tagged locus)) (UniProt P09478).
T1 sequence: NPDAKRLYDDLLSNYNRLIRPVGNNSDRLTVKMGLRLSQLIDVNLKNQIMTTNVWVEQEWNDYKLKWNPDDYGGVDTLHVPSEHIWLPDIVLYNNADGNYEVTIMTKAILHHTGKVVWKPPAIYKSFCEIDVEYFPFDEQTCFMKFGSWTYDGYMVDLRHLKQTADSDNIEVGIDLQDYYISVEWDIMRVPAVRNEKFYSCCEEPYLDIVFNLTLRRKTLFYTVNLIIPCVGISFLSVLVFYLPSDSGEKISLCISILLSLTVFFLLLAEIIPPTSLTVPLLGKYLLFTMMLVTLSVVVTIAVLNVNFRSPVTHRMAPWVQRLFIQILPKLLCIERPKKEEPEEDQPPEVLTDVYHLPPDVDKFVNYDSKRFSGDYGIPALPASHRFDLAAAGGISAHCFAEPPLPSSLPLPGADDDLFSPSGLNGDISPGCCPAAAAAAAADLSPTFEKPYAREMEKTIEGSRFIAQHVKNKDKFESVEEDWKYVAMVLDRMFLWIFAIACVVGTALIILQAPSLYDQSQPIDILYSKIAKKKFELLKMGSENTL

For assay [2], the target named is T1, nicotinic acetylcholine receptor (nAChR) subunit α1, endogenously tagged with smGFP-V5 (α1^V5) (Drosophila (endogenous, tagged locus)). This is another data set of the same source.
In assay [3] the target is T2, nicotinic acetylcholine receptor (nAChR) subunit β1, endogenously tagged with smGFP-FLAG (β1^FLAG) (Drosophila (endogenous, tagged locus)) (UniProt P04755).
T2 sequence: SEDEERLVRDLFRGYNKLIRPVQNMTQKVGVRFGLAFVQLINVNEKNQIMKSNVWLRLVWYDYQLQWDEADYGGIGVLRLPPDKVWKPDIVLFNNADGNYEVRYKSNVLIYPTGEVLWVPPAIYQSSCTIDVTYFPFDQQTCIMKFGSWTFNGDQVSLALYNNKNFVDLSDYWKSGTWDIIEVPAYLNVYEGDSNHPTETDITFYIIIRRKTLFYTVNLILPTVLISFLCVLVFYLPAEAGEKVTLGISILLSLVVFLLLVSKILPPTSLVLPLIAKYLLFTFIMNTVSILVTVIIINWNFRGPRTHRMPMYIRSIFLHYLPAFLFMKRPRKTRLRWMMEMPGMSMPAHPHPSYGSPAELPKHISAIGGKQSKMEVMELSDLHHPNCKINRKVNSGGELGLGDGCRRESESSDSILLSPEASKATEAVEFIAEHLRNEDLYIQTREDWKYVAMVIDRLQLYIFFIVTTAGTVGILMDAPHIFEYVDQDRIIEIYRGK

Assay [4] has as its target T2, nicotinic acetylcholine receptor (nAChR) subunit β1, endogenously tagged with smGFP-FLAG (β1^FLAG) (Drosophila (endogenous, tagged locus)). This is another data set of the same source.

Experimental findings from paper doi:10.1101/2024.10.02.616374 are described below.

Where two headings read alike, the source gives them in different places. No constants are given. Whether binding was seen depends on the method and setting. Binding seen in cells or lysates may run through a third protein. Some results given as binding are weak or reduced against the parent protein; the word gives no strength. Tags and fused reporters may be left off the sequences shown.

B1: nicotinic acetylcholine receptor (nAChR) subunit β1, endogenously tagged with smGFP-FLAG (β1^FLAG) (receptor, UniProt P04755 25-521)
chain: SEDEERLVRDLFRGYNKLIRPVQNMTQKVGVRFGLAFVQLINVNEKNQIMKSNVWLRLVWYDYQLQWDEADYGGIGVLRLPPDKVWKPDIVLFNNADGNYEVRYKSNVLIYPTGEVLWVPPAIYQSSCTIDVTYFPFDQQTCIMKFGSWTFNGDQVSLALYNNKNFVDLSDYWKSGTWDIIEVPAYLNVYEGDSNHPTETDITFYIIIRRKTLFYTVNLILPTVLISFLCVLVFYLPAEAGEKVTLGISILLSLVVFLLLVSKILPPTSLVLPLIAKYLLFTFIMNTVSILVTVIIINWNFRGPRTHRMPMYIRSIFLHYLPAFLFMKRPRKTRLRWMMEMPGMSMPAHPHPSYGSPAELPKHISAIGGKQSKMEVMELSDLHHPNCKINRKVNSGGELGLGDGCRRESESSDSILLSPEASKATEAVEFIAEHLRNEDLYIQTREDWKYVAMVIDRLQLYIFFIVTTAGTVGILMDAPHIFEYVDQDRIIEIYRGK
In the case of B1, the binding result in assay [1] and in assay [2] was “binds” in each case.

B2: nicotinic acetylcholine receptor (nAChR) subunit α1, endogenously tagged with smGFP-V5 (α1^V5) (receptor, UniProt P09478 22-567)
chain: NPDAKRLYDDLLSNYNRLIRPVGNNSDRLTVKMGLRLSQLIDVNLKNQIMTTNVWVEQEWNDYKLKWNPDDYGGVDTLHVPSEHIWLPDIVLYNNADGNYEVTIMTKAILHHTGKVVWKPPAIYKSFCEIDVEYFPFDEQTCFMKFGSWTYDGYMVDLRHLKQTADSDNIEVGIDLQDYYISVEWDIMRVPAVRNEKFYSCCEEPYLDIVFNLTLRRKTLFYTVNLIIPCVGISFLSVLVFYLPSDSGEKISLCISILLSLTVFFLLLAEIIPPTSLTVPLLGKYLLFTMMLVTLSVVVTIAVLNVNFRSPVTHRMAPWVQRLFIQILPKLLCIERPKKEEPEEDQPPEVLTDVYHLPPDVDKFVNYDSKRFSGDYGIPALPASHRFDLAAAGGISAHCFAEPPLPSSLPLPGADDDLFSPSGLNGDISPGCCPAAAAAAAADLSPTFEKPYAREMEKTIEGSRFIAQHVKNKDKFESVEEDWKYVAMVLDRMFLWIFAIACVVGTALIILQAPSLYDQSQPIDILYSKIAKKKFELLKMGSENTL
Regarding B2, the binding entry in assay [3] and in assay [4] was “binds” each time.
